Results on 1 molecule are retold here after patent publication US20100041596A1.

For this assay, the target named is p80 TNFR, full-length (Homo sapiens (Human)) (UniProt P20333). Description: co-immunoprecipitation, anti-HA blot, 293T cells.

No constants are given. Whether binding was seen depends on the method and setting. Binding seen in cells or lysates may run through a third protein. Some entries that bind do so weakly or less than the wild type.

B1: p80 10-54 / p60 55-211 chimera (receptor, not shown: small tags and cut ends)
chain (part 1 of 2): LPAQVAFTPY
chain (part 2 of 2): YAPEPGSTCRLREYYDQTAQMCCSKCSPGQHAKVFCTKTSDTVCDCESGSFTASENHLRHCLSCSKCRKEMGQVEISSCTVDRDTVCGCRKNQYRHYWSENLFQCFNCSLCLNGTVHLSCQEKQNTVCTCHAGFFLRENECVSCSNCKKSLECTKLCLPQIENVKGTEDSGTTVLLPLVIFFGLCLLSLLFIGLMYRYQRWK
As for B1, the binding entry is “binds”.
